Assay results taken from PMC12519287.
These are yes or no findings as the source states them, for the method shown. In cells and extracts the contact can be indirect. These calls come from enrichment with a bait or labelling near it, and not all partners need be listed. Where a sequence is shown, tags or fusion partners need not be part of it.

Target: T1, FLAG-PPP1R21 FL (full-length protein phosphatase 1 regulatory subunit 21 with a FLAG tag) (human) (UniProt Q6ZMI0)
T1 sequence: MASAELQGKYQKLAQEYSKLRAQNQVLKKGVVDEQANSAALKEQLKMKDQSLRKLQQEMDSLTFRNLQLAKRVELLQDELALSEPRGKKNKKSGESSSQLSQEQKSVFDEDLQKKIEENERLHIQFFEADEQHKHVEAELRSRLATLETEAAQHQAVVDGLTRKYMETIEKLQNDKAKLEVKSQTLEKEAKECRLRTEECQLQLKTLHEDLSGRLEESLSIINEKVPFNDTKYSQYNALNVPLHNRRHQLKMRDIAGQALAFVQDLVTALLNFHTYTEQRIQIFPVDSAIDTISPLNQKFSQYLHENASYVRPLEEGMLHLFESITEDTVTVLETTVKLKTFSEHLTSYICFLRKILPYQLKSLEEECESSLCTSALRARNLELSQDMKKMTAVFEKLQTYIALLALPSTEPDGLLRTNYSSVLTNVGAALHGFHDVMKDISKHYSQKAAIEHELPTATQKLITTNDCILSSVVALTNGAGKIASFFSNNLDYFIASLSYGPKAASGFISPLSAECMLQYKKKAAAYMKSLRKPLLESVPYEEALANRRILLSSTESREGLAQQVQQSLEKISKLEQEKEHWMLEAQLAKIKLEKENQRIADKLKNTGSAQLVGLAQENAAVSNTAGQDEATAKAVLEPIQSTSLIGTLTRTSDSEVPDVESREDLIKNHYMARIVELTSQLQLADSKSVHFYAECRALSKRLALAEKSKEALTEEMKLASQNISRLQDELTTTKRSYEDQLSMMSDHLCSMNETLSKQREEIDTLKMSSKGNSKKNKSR
Test: affinity purification with mass spectrometry; FLAG-PPP1R21 FL overexpressed in HEK293T cells; co-IP with anti-FLAG antibody or control IgG; 0.5% CHAPS lysis buffer; precipitates separated by SDS-PAGE, full lane analysed by MS

B1: endogenous AEG-1 (HEK293T) (protein, UniProt Q86UE4 1-582)
chain: MAARSWQDELAQQAEEGSARLREMLSVGLGFLRTELGLDLGLEPKRYPGWVILVGTGALGLLLLFLLGYGWAAACAGARKKRRSPPRKREEAAAVPAAAPDDLALLKNLRSEEQKKKNRKKLSEKPKPNGRTVEVAEGEAVRTPQSVTAKQPPEIDKKNEKSKKNKKKSKSDAKAVQNSSRHDGKEVDEGAWETKISHREKRQQRKRDKVLTDSGSLDSTIPGIENTITVTTEQLTTASFPVGSKKNKGDSHLNVQVSNFKSGKGDSTLQVSSGLNENLTVNGGGWNEKSVKLSSQISAGEEKWNSVSPASAGKRKTEPSAWSQDTGDANTNGKDWGRSWSDRSIFSGIGSTAEPVSQSTTSDYQWDVSRNQPYIDDEWSGLNGLSSADPNSDWNAPAEEWGNWVDEERASLLKSQEPIPDDQKVSDDDKEKGEGALPTGKSKKKKKKKKKQGEDNSTAQDTEELEKEIREDLPVNTSKTRPKQEKAFSLKTISTSDPAEVLVKNSQPIKTLPPATSTEPSVILSKSDSDKSSSQVPPILQETDKSKSNTKQNSVPPSQTKSETSWESPKQIKKKKKARRET
binding: binds
